Experiment in all cases: DAPPL (digital affinity profiling via proximity ligation, sequencing)
Holding throughout (conditions): 10 mM Tris-HCl pH 7.5, 50 mM NaCl, 1 mM DTT, 4% glycerol, room temperature, 30 min; GST-TFs on glutathione beads, 16-mer random dsDNA library, 0.1% …; high values mean tight binding; double strand, one strand shown; scale: fold enrichment (6-mer frequency, TF over GST control)

Protein sequences, listed by entry. Tags and fused reporters are not part of them. Lines headed by an entry give the natural chain unless they say otherwise; changes in a name come on top.
UniProt Q01892: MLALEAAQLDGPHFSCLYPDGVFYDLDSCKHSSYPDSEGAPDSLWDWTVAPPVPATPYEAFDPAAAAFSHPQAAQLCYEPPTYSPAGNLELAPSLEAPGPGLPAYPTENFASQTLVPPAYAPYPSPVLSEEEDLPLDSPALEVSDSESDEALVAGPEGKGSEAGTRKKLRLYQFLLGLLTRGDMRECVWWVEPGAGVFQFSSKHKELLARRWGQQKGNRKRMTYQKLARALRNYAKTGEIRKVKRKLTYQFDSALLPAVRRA

One assay addresses T1, EHF (UniProt Q9NZC4).
T1 sequence: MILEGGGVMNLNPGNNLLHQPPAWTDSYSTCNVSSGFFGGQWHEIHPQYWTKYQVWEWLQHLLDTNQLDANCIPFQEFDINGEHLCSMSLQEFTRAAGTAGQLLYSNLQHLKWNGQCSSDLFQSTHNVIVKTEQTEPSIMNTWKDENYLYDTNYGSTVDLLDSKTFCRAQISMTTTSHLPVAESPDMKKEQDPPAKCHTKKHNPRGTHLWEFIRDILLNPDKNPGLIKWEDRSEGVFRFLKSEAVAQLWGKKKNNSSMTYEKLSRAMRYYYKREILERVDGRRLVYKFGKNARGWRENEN

In another assay the target is SPIB (UniProt Q01892).
The target in a further assay is T2, ETV2 (UniProt O00321).
T2 sequence: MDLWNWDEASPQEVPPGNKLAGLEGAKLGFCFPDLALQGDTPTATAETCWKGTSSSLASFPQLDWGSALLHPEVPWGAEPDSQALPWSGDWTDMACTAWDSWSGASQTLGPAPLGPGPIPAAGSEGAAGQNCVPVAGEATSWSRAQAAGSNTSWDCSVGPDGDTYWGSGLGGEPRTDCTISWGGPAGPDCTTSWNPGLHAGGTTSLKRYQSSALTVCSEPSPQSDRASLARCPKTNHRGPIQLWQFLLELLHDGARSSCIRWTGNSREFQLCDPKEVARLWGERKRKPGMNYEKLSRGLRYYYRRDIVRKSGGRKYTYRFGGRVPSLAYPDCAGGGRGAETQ

In another assay the target is T3, ETV3L (UniProt Q6ZN32).
T3 sequence: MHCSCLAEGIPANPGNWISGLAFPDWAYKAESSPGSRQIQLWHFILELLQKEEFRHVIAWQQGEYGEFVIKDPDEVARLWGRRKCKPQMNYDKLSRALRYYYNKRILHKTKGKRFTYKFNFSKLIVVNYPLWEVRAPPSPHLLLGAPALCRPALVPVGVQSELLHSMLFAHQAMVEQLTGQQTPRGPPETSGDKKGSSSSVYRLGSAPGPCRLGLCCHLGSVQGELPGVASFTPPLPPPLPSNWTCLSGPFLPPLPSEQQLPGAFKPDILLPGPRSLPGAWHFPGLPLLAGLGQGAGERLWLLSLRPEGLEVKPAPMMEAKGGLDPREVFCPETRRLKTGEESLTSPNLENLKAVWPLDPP

This is a selection; strong and weak results do not stand in their true shares. At the low end of the ranking the order means little.

The values below come from paper PMC7862700.

With AGACCT, the binding signal is 0.975 with EHF, 0.975 with SPIB and 1.2 with ETV2.

On to TGCTCT, for which the binding signal stood at 1.42 with SPIB and 1.47 in the assay with ETV2.

For TATATA, the values for the binding signal with EHF, with SPIB and with ETV2 were 1.32, 1.49 and 1.08, respectively.

For TGCAAA, the results for the binding signal with SPIB and in the assay with ETV2 were 1.12 and 1.08, respectively.

GATGGT: the values for the binding signal with SPIB and with ETV2 were 1.19 and 1.37, respectively.

Turning to TTGGGT, the binding signal came out at 1.05 with SPIB and 0.91 with ETV2.

Consider TGGACC, for which the binding signal with SPIB was found to be 1.02; with ETV2, 0.978.

For ACAAGC, the binding signal in the assay with SPIB was found to be 1.12; with ETV2 it was 1.06.

Regarding CGTTCA, the binding signal with SPIB is 1.2; in the assay with ETV2, 1.19.

As to AATCGA, the binding signal with EHF was 0.962; with SPIB it was 1.07; in the assay with ETV2, 0.854.

As for TGAATT, the results for the binding signal in the assay with EHF, with SPIB and in the assay with ETV2 were 1.17, 1.19 and 1.19, respectively.

Turning to CAAATT, the results for the binding signal in the assay with SPIB and with ETV2 were 1.08 and 1.09, respectively.

For the sequence TCTGTT, the results for the binding signal with EHF and in the assay with ETV2 were 1.45 and 1.3, respectively.

Take CGGCTA: the figures for the binding signal with SPIB and in the assay with ETV2 were 1.21 and 0.966, respectively.

In the case of GTCTAC, the binding signal is 1.03 in the assay with SPIB and 0.961 with ETV2.

As for ACTTTG, the binding signal is 1.16 with SPIB and 1.39 with ETV2.

On to GTTTGG, for which the binding signal in the assay with EHF is 0.933; in the assay with ETV2, 1.06.

With GGGCTA, the binding signal with SPIB stood at 1.15; in the assay with ETV2, 0.977.

For CGACGA, the binding signal with EHF was 1.14; in the assay with ETV2, 1.01.

AGATTC: the binding signal with SPIB was 1.14; in the assay with ETV2, 1.32.

Regarding CCGATG, the binding signal turned out to be 1.03 with EHF, 1.2 in the assay with SPIB and 0.985 with ETV2.

For the sequence AAGTAC, the binding signal with EHF is 1.59; in the assay with SPIB, 1.57; in the assay with ETV2, 1.41.

Consider CGCTTC, for which the binding signal with SPIB is 2.05; with ETV2, 1.68.

As for GTCACA, the binding signal amounted to 1.07 with SPIB and 1.01 in the assay with ETV2.

As for ATTTGG, the binding signal in the assay with SPIB was 1.32; with ETV2, 1.37.

With CGCTCT, the results for the binding signal with SPIB and in the assay with ETV2 were 1.16 and 1.12, respectively.

Turning to GCAAAA, the binding signal with SPIB is 1.13; with ETV2, 1.14.

Consider ACCTAC, for which the binding signal in the assay with EHF amounted to 1.21; with ETV3L it was 1.26.

Consider TGCACG, for which the binding signal turned out to be 1.22 with EHF and 1.1 in the assay with ETV3L.

As for TACTAA, the values for the binding signal with EHF and in the assay with ETV3L were 1.3 and 1.23, respectively.

On to CCATTC, for which the binding signal with EHF worked out at 1.07; with ETV3L it was 1.06.

On to CATACT, for which the binding signal is 1.31 in the assay with EHF and 1.33 in the assay with ETV3L.

In the assay with ETV3L, TCTGCA returned a binding signal of 1.42.

Take TATAAG: the binding signal with EHF was determined as 1.1; with ETV3L it was 1.21.

In turn, TGCTGT displayed a binding signal with ETV3L of 0.998.

As for TCTTTG, the binding signal with EHF was 1.21; with ETV3L, 1.24.

In the case of TCGCCT, the binding signal with EHF was determined as 1.34; in the assay with ETV3L it was 1.23.

For TTATAG, the binding signal with EHF worked out at 1.25; with ETV3L it was 1.28.

For the sequence CTCTGG, the values for the binding signal with EHF and with ETV3L were 1.35 and 1.45, respectively.

Turning to CCCGCC, the binding signal in the assay with EHF is 1.53; with ETV3L, 1.56.
